# Hit rate of the full screen: of about 400,000 compounds, about 5,500 (1.4%) were called active. This list was built around the results that the source calls inconclusive (neither active nor inactive); the mix of calls is not that of the screen. The call rests on the fitted dose curve; in most records, active means well fitted cell-killing curve with a large enough effect; inconclusive means small, poorly fitted or top-dose-only effect, or effect the other way; inactive means flat fitted curve, though single readings scatter. Potencies beside an inconclusive call are fits to weak or partial responses and may not hold up.
# Test: qHTS assay for MDR1-selective chemotherapeutics: Primary screen using the parental adenocarcinoma cell KB-3-1; further: nearly all actives have a fitted effect of over 60% in size
# Conditions: KB-3-1 viability, CellTiter-Glo ATP luminescence, 72 h; activity change, negative = cytotoxic: at 46.1 µM (top of the series)
# Outline: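 72 h, 37 °C compound treatment of KB-3-1 parental cells; CellTiter-Glo added, 10 min, luminescence read. Data corrected against DMSO-only plates and normalized before curve fitting.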
# On the % scale 0 is the no-effect control and ±100 the full control effect; potency means the concentration at half of the fitted maximal effect.
SMILES,Potency,"activity change, negative = cytotoxic"
CC(=O)Oc1cc2c(c3ccccc13)CCC2=O,inactive,–
CCOC(=O)c1ccc(NCc2nc3ccccc3n2C)cc1,"inconclusive: 25.9 µM [cytotoxic, single point]",–
COc1cc(CNCCN2CCOCC2)ccc1OCc1ccc(Cl)cc1Cl,"inconclusive: 20.6 µM [cytotoxic, single point]",–
Cc1ccc(CNC(=O)Nc2cc(C(=O)NCc3cccc(F)c3)ccc2N2CCCC2)cc1,"inconclusive: 2.91 µM [cytotoxic, partial curve, poor fit]",–
CC(=O)N1CCc2cc(Br)cc(S(=O)(=O)N3CCC(C(=O)Nc4cccc(C)c4C)CC3)c21,–,inconclusive: -6.19%
C[C@]12c3[nH]c4ccc(Cl)cc4c3CCN1C(=O)[C@@H](CC(=O)NCCC1=CCCCC1)C[C@@H]2C(=O)N1CCOCC1,inactive,–
COc1ccccc1NC(=O)Cn1c(CN2CCCCC2)nc2ccccc2c1=O,inactive,–
CCOc1ccc(NS(=O)(=O)c2ccc(OCC)c3ncccc23)cc1,"inconclusive: 25.9 µM [cytotoxic, partial curve, poor fit]",–
O=CN1CCN(S(=O)(=O)c2ccc(Cl)c(C(=O)O)c2)CC1,inactive,–
CCC(C(=O)OC)n1c(-c2ccccc2)nc2ccccc2c1=O (centres undefined),"inconclusive: 14.6 µM [cytotoxic, partial curve, poor fit]",–
Cc1ccc(C2CC(=O)Nc3cc4c(cc32)OCCO4)cc1Br (centres undefined),"inconclusive: 20.6 µM [cytotoxic, partial curve, poor fit]",–
COc1ccc(-c2nnc(NC(=O)c3ccc(S(=O)(=O)N4CCc5ccccc5C4)cc3)o2)cc1,"inconclusive: 4.47 µM [cytotoxic, partial curve, poor fit]",–
CCOC(=O)c1cnc2ccc(C)cc2c1NCCN1CCOCC1,inactive,–
CC(=O)c1c(C)[nH]c(C(=O)N2CC(C)CC(C)C2)c1C (centres undefined),inactive,–
CC(C)C(c1nnnn1CCc1ccccc1)N1CCOCC1 (centres undefined),"inconclusive: 23.1 µM [cytotoxic, single point]",–
CCCCCCCCCCCCCCCCn1cc[n+](CC(C)=O)c1,active: 8.2 µM,–
Fc1ccccc1-c1nc(N2CCN(c3cccc(Cl)c3)CC2)c2ccccc2n1,"inconclusive: 29.1 µM [cytotoxic, single point]",–
O=C(NCCc1ccccc1)C(c1cccs1)N(C(=O)CCl)c1ccc(Cl)cc1 (centres undefined),"inconclusive: 23.1 µM [cytotoxic, single point]",–
CCC(=O)Nc1c(S(=O)(=O)c2ccccc2)c2nc3ccccc3nc2n1C(C)c1ccccc1 (centres undefined),"inconclusive: 32.6 µM [cytotoxic, single point]",–
COC(=O)C1=C(C)NC(=O)CC1c1cc(Br)ccc1F (centres undefined),inactive,–
COc1ccc(Cc2nc3ccc(C(=O)N(C)CCc4cnn(C)c4)cc3o2)cc1OC,"inconclusive: 14.6 µM [cytotoxic, partial curve]",–
Cc1cccc(NC(=S)N/N=C/c2c[nH]c3ccccc23)c1,active: 11.6 µM,–
CC(C)NC(=O)NNC(=O)c1cc(COc2cc(Cl)cc(Cl)c2)on1,inactive,–

SMILES,Potency,"activity change, negative = cytotoxic"
c1ccc(-c2nnc3nc(N4CCCCC4)nc(N4CCCCC4)n23)cc1,"inconclusive: 20.6 µM [cytotoxic, single point]",–
CC(C)OCCCn1c(=O)c2ccccc2n2c(-c3ccccc3)nnc12,inactive,–
CCCCCCn1cc(C(=O)O)c(=O)c2cc(F)c(N3CCN(C)CC3)cc21,inactive,–
CC(C)(C)C1CCc2c(sc(NC(=O)c3cccc(Cl)c3)c2C(=O)NCc2ccco2)C1 (centres undefined),inactive,–
Cc1ccnc(NC(=O)c2ccccc2NC(=O)c2ccc(Cl)cc2Cl)c1,active: 5.8 µM,–
CCc1ccc(C(=O)NNC(=O)C2CSC3(C)CCC(=O)N23)cc1 (centres undefined),inactive,–
COc1ccc(/C=N/NC(=S)Nc2ccccc2[N+](=O)[O-])cc1O,"inconclusive: 29.1 µM [cytotoxic, single point]",–
O=C1CC(N2CCN(c3ccc(F)cc3)CC2)C(=O)N1Cc1ccc(N2CCCC2=O)cc1 (centres undefined),"inconclusive: 29.1 µM [cytotoxic, single point]",–
COc1ccc(S(=O)(=O)N2CCOCC2)cc1NC(=O)c1ccc(S(=O)(=O)N2CCCCC2)cc1,"inconclusive: 29.1 µM [rising, partial curve, poor fit]",–
O=C1c2ccccc2N2C(=O)c3ccccc3C2N1Cc1ccccc1 (centres undefined),"inconclusive: 23.1 µM [cytotoxic, partial curve, poor fit]",–
COc1ccc(C(=O)c2[nH]c(N)c(C(=O)NCCc3c[nH]c4ccccc34)c2-c2ccccc2Br)cc1,"inconclusive: 29.1 µM [cytotoxic, single point]",–
CN(C)CCCN1C(=O)c2cccc3cccc(c23)C1=O,"inconclusive: 29.1 µM [cytotoxic, single point]",–
COc1ccc(OC)c(-c2cc(-c3cccnc3)nc(N)c2C#N)c1,active: 2.06 µM,–
COC(=O)Nc1ccc(S(=O)(=O)N2CCCC(C(=O)O)C2)cc1 (centres undefined),"inconclusive: 0.0366 µM [rising, full curve]",–
COc1cc(OC)c(NC(=O)CCS(=O)(=O)c2ccc3c(c2)oc(=O)n3C)cc1Cl,"inconclusive: 18.4 µM [rising, single point]",–
CN(CCc1ccccc1)C(=O)c1cccc(NC(=O)Cc2cccc(NC(=O)C3CCN(C(=O)c4ccccc4)CC3)c2)c1,inactive,–
Cc1ccc(N2C(N)=C(C#N)C(c3cccnc3)C3=C2CC(C)(C)CC3=O)cc1 (centres undefined),"inconclusive: 18.4 µM [cytotoxic, single point]",–
CCc1ccc(N=C2NC(=O)/C(=C/c3cc(OC)c(OC)c(OC)c3)S2)cc1,"inconclusive: 23.1 µM [cytotoxic, partial curve, poor fit]",–
CCOc1cc(C)c(S(=O)(=O)Nc2ccc(Cl)cn2)cc1C,inactive,–
CCc1ccc(-c2cc(C)no2)cc1S(=O)(=O)N1CCN(c2ccccn2)CC1,"inconclusive: 29.1 µM [cytotoxic, single point]",–
COc1ccc(/C=N/Nc2nonc2N)cc1OC,"inconclusive: 7.31 µM [cytotoxic, partial curve]",–
CN(C(=O)CC(=O)Nc1ccc2nc3n(c(=O)c2c1)CCCCC3)c1ccccc1F,inactive,–
CC(=O)c1ccc(S(=O)(=O)N2CCCC(N(C)CCc3ccccc3)C2)cc1 (centres undefined),"inconclusive: 32.6 µM [cytotoxic, single point]",–

SMILES,Potency,"activity change, negative = cytotoxic"
Cc1scc(CN2CCN(c3ccccc3F)CC2)c1C,inactive,–
COc1ccc(Nc2nc(N)nc(CSc3nc(C)cc(C)n3)n2)cc1,"inconclusive: 14.6 µM [rising, single point]",–
O=C(NCC(=O)N1CCCCCCC1)c1cccc([N+](=O)[O-])c1,inactive,–
COc1ccc(OC)c(/C=N\Nc2nccs2)c1,inactive,–
CCCNC(=O)c1ccc(N2CCC3(CC2)CC(c2ccccc2)=NO3)c(NC(=O)c2cccc(OC)c2)c1,"inconclusive: 29.1 µM [cytotoxic, single point]",–
NC(=O)c1ccccc1OCc1cccc2ccccc12,"inconclusive: 29.1 µM [cytotoxic, single point]",–
Nc1ccc2c(c1)Cc1cc(N)c(Cl)cc1-2,"inconclusive: 29.1 µM [cytotoxic, single point]",–
CC(C)C[C@H](NC(=O)c1[nH]cnc1C(=O)Nc1ccc(Cl)cc1)C(=O)OC(C)(C)C,"inconclusive: 16.4 µM [cytotoxic, partial curve]",–
CNc1ccc(Br)cc(C(=O)/C=C/c2cccc(OC)c2)c1=O,"inconclusive: 29.1 µM [cytotoxic, single point]",–
CC(=O)Nc1cccc(NC(=O)NC2CC(=O)N(c3ccc4c(c3)OCCO4)C2)c1 (centres undefined),"inconclusive: 23.1 µM [rising, single point]",–
CCCCN(C(=O)C(C)Oc1ccc(Br)cc1)c1c(N)n(CC(C)C)c(=O)[nH]c1=O (centres undefined),inactive,–
CCOc1ccc(NC(=O)Cn2cnc3sc(C)c(S(=O)(=O)N4CCN(c5ccccc5OC)CC4)c3c2=O)cc1,inactive,–
O=S1(=O)CCO[C@H]2Cc3ccccc3[C@H]2N1Cc1ccccc1Br,"inconclusive: 32.6 µM [cytotoxic, single point]",–
Cc1nn2c(C)c(C(=O)NC(C)c3ccccc3)cnc2c1-c1ccc(F)cc1 (centres undefined),"inconclusive: 29.1 µM [cytotoxic, single point]",–
CC(C)(C)CC(=O)NCCc1csc(-c2ccccc2)n1,inactive,–
Cc1cccc(C)c1-n1ncc(C(=O)O)c1C1CCN(C(=O)OC(C)(C)C)CC1,inactive,–
COc1ccc(C(C)NCCC(c2ccc(OC(C)C)cc2)c2ccccc2OC)cc1 (centres undefined),active: 20.6 µM,–
CCC(=O)N1CCCc2cc(S(=O)(=O)N3CCC(C(=O)NCc4ccc(F)cc4)CC3)ccc21,–,inconclusive: -9.44%
Cc1ccc(/C=C/C(=O)c2ccc(O)cc2)cc1,"inconclusive: 29.1 µM [cytotoxic, single point]",–
Cc1cccc(OCCNc2cc(N3CCN(C)CC3)ccc2[N+](=O)[O-])c1,"inconclusive: 20.6 µM [cytotoxic, single point]",–
COc1ccc(CNC(=S)NC2CCCC2)cc1,"inconclusive: 0.366 µM [rising, full curve]",–
COc1ccc(-n2c(Cc3cccn3C)nnc2SCC(=O)N2CCOCC2)cc1,"inconclusive: 2.31 µM [cytotoxic, partial curve, poor fit]",–
Cc1nn(C)c(C)c1/C=C/C(=O)c1ccc(Cl)cc1Cl,"inconclusive: 23.1 µM [cytotoxic, partial curve, poor fit]",–

# 5 entries from above, bar-delimited.
SMILES | Potency | activity change, negative = cytotoxic
Cc1cccc(C)c1-n1ncc(C(=O)O)c1C1CCN(C(=O)OC(C)(C)C)CC1 | inactive | –
COc1ccc(C(C)NCCC(c2ccc(OC(C)C)cc2)c2ccccc2OC)cc1 (centres undefined) | active: 20.6 µM | –
CCC(=O)N1CCCc2cc(S(=O)(=O)N3CCC(C(=O)NCc4ccc(F)cc4)CC3)ccc21 | – | inconclusive: -9.44%
Cc1ccc(/C=C/C(=O)c2ccc(O)cc2)cc1 | inconclusive: 29.1 µM [cytotoxic, single point] | –
Cc1cccc(OCCNc2cc(N3CCN(C)CC3)ccc2[N+](=O)[O-])c1 | inconclusive: 20.6 µM [cytotoxic, single point] | –

# Source: PubChem BioAssay AID1347075 (National Center for Advancing Translational Sciences (NCATS), 2019)
